Measurements taken from patent publication US20230183742A1, “Viral Vector Production” (Oxford BioMedica (UK) Limited, priority 2020, published 2023).
“Also recorded” adds a separate entry of the source.

System: HEK1.65s cells
Assay type: cell-based, human

## O=C(CCCCCCC(=O)Nc1ccccc1)NO [SAHA, suberanilohydroxamic acid]
  inducing effect on LV titre among HDAC inhibitors: lowest LV titres; also recorded: weakest inducing effect
